Laboratory results: paper PMC12631102, “SYT4 Interacts with PSMC6 to Facilitate Malignant Progression in Gastric Carcinoma via Activating Wnt/β-catenin Signaling” (International Journal of Biological Sciences, 2025)
Results are given in words; binding and its absence hold for the method and conditions named. In cells and extracts the contact can be indirect. These calls come from enrichment with a bait or labelling near it, and not all partners need be listed. Tags and fused reporters may be left off the sequences shown.

By UniProt entry, the sequences of proteins in these tests, tags left out.
UniProt P62333: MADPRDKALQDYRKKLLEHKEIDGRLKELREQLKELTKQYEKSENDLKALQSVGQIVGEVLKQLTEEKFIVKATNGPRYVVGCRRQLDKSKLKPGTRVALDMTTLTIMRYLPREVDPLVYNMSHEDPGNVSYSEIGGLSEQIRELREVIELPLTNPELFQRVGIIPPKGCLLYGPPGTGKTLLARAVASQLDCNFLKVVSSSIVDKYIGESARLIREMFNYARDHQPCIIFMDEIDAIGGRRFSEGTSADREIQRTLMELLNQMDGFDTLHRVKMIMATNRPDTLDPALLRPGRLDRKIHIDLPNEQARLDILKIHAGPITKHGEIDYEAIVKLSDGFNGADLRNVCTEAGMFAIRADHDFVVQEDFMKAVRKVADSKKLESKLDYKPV

Biological target: T1, Synaptotagmin-4 (SYT4), overexpressed in cells (UniProt Q9H2B2)
T1 sequence: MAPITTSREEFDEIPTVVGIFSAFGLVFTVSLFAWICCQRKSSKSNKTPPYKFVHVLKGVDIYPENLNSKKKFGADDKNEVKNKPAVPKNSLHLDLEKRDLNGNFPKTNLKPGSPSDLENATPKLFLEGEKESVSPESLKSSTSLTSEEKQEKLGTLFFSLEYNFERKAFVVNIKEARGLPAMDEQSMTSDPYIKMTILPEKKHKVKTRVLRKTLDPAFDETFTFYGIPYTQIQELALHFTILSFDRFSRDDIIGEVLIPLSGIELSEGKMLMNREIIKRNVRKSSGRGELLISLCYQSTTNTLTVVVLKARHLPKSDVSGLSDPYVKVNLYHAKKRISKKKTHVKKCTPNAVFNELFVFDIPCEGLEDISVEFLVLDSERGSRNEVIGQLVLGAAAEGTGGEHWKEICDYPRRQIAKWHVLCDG
Test: affinity purification with mass spectrometry; IP from RIPA lysates of SYT4-overexpressing and control cells with anti-Flag or IgG overnight at 4 °C, protein A/G magnetic beads; bound proteins identified by mass spectrometry (Orizymes)

binding: binds
Substance: Proteasome 26S subunit ATPase 6 (PSMC6), in cell lysate (from UniProt P62333 1-389)
